From patent US20110183418 (published 2011)

Experiment: peptide made by a vendor (Fmoc solid-phase peptide synthesis; Fmoc-Rink Amide resin; DIC/HOBt with NMM; HBTU/HOBt with NMM)
Settings: for step yield: purification step, purification yield; for final purity (method not given): scale of the general procedure 15 mmol, 1 mmol

Substance: MAA-PEO4-Lys-Gly-Gly-Pro-Gln-Val-Thr-Arg-Gly-Asp-Val-Phe-Thr-Met-Pro-NH2
- step yield: 25.9%
- isolated mass (whole synthesis): 1.035 g
- crude mass (whole synthesis, scale 1 mmol): 4.0 gram
- final purity (method not given) (whole synthesis): over 90%

Substance: Ac-Lys(MAA)-Gly-Gly-Pro-Gln-Val-Thr-Arg-Gly-Asp-Val-Phe-Thr-Met-Pro-NH2
- step yield: 54.4%
- crude mass (whole synthesis, scale 15 mmol): 33.0 gram
- final purity (method not given) (whole synthesis): over 90%
